Values from PubChem BioAssay AID504793 (Drosophila RNAi Screening Center, 2011).

Assay: 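Whole-genome screen for parts of the DNA damage checkpoint at G2/M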 (primary screen)
Cells: Drosophila S2R+ cells
Knock-down reagent: long dsRNA against Drosophila genes, about 0.25 µg dsRNA per well
Timing: 4 days of dsRNA, then 4 hours of drug before read-out
Conditions: doxorubicin 0.5 µM for 4 hours to cause double-strand breaks, in cells also given a low, harmless dose of dsRNA against nbs to sensitise the assay
Read-out: 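Mitotic index as the number of phospho-histone H3-positive cells in each well following doxorubicin, given as raw counts without normalisation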
Scale: mitotic cells: higher = more cells in mitosis, weaker G2 arrest
Rule for the call: 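Genes are called active only when high mitotic counts were reproduced with independent dsRNAs and mitosis was checked for delay without damage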
Meaning of the calls: active = confirmed in follow-up tests; inactive = not confirmed
In all, the deposit lists about 23,000 reagents; below is a random part of those with a known target gene and a result. Of all reagents, 62 (0.27%) got an active call. 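Calls come from follow-up tests whose scores are not deposited, so confirmed genes may have low counts here; counts are not normalised per plate.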 Raw values vary from plate to plate and are shown uncorrected. A plus sign joins genes that one reagent is predicted to hit.

Knock-down of CG11231 (retired record) [DRSC17207] gave: mitotic cells, replicate 1 = 9; inactive. With knock-down of mtg [DRSC16256] the results were mitotic cells, replicate 1 = 4; inactive. For mtg [DRSC24674], the entry reads mitotic cells, replicate 1 = 8; inactive. After knock-down of mbl [DRSC23188], the screen gave mitotic cells, replicate 1 = 5; inactive. For mbl [DRSC28319] the deposit lists mitotic cells, replicate 1 = 7; inactive. Depletion of beag [DRSC15296] gave: inactive.

Against CG6813 [DRSC16122], the values are mitotic cells, replicate 1 = 3; inactive. mago [DRSC04703] gave mitotic cells, replicate 1 = 6; inactive. Against CG17544 [DRSC02624] the deposit lists mitotic cells, replicate 1 = 5; inactive. With knock-down of CG17544 [DRSC25562], the record shows mitotic cells, replicate 1 = 3; inactive. Against Aldh-III [DRSC06047] the deposit lists mitotic cells, replicate 1 = 6; inactive. Against Aldh-III [DRSC26578], the values are mitotic cells, replicate 1 = 6; inactive.

Silencing of RIC-3 [DRSC04243] resulted in: mitotic cells, replicate 1 = 8; inactive. With knock-down of RIC-3 [DRSC04543] the results were mitotic cells, replicate 1 = 5; inactive. With knock-down of Phlpp [DRSC02065] the results were mitotic cells, replicate 1 = 6; inactive. After knock-down of Phlpp [DRSC22808], the record shows mitotic cells, replicate 1 = 6; inactive. CG32793 [DRSC18145] showed mitotic cells, replicate 1 = 15; inactive. With knock-down of CG32793 [DRSC18194], the screen gave mitotic cells, replicate 1 = 14; inactive.

For CG32793 [DRSC28737], the values are mitotic cells, replicate 1 = 11; inactive. After knock-down of jim [DRSC11889] the results were mitotic cells, replicate 1 = 5; inactive. Depletion of jim [DRSC23829] gave: mitotic cells, replicate 1 = 6; inactive. CG9988 [DRSC16587] showed mitotic cells, replicate 1 = 14; inactive. zpg [DRSC09702] showed mitotic cells, replicate 1 = 12; inactive. Knock-down of zpg [DRSC26258] resulted in: mitotic cells, replicate 1 = 5; inactive.

Dmtn [DRSC12513] showed mitotic cells, replicate 1 = 9; inactive. With knock-down of Dmtn [DRSC28385], the record shows mitotic cells, replicate 1 = 5; inactive. With knock-down of Atg10 + CG12822 [DRSC06796] the results were mitotic cells, replicate 1 = 7; inactive. CG10232 [DRSC14218] scored inactive. After knock-down of Spase22-23 [DRSC15857], the record shows mitotic cells, replicate 1 = 9; inactive. Against CG15059 [DRSC19633], the values are mitotic cells, replicate 1 = 10; inactive.

After knock-down of CG15059 [DRSC28667], the screen gave mitotic cells, replicate 1 = 4; inactive. After knock-down of Saf-B [DRSC16167] the results were mitotic cells, replicate 1 = 9; inactive. Depletion of Saf-B [DRSC28393] resulted in: mitotic cells, replicate 1 = 9; inactive. After knock-down of Trf [DRSC03462], the record shows mitotic cells, replicate 1 = 6; inactive.

Look-ups from above.
For “Outcome”, Aldh-III [DRSC26578] shows inactive
Under “mitotic cells, replicate 1”, Phlpp [DRSC02065] reads 6
